Results are given in words; binding and its absence hold for the method and conditions named. In cells and extracts the contact can be indirect. A result given as binding can be weak or reduced; the word gives no strength. Tags and fused reporters may be left off the sequences shown.

Among the data in publication doi:10.1101/529222 are binding values, retold here.

For the test, the target named is T1, Myc-TRIM67 (mouse) (UniProt Q505D9).
T1 sequence: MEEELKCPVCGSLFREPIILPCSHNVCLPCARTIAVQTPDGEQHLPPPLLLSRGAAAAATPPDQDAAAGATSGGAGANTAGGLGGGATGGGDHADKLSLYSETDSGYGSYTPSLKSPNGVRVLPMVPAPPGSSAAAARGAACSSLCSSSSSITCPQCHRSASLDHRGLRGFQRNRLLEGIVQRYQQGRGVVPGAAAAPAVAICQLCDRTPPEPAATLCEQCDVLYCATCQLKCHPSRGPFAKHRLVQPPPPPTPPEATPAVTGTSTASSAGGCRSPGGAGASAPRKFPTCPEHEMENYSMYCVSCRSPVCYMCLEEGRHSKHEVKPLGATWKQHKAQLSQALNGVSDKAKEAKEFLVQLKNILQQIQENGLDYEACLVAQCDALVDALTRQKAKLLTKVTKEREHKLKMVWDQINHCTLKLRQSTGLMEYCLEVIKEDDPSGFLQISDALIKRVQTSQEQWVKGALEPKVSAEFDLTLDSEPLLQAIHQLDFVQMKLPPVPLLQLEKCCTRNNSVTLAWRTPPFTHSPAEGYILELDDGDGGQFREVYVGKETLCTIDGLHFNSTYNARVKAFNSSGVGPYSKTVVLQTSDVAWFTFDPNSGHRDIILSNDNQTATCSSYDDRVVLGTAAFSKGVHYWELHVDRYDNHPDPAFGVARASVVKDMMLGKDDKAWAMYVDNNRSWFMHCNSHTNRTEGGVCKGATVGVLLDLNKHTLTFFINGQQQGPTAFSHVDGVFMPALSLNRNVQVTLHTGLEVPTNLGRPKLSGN
The test is described as follows: co-IP.

Turning to GFP-Mena (from UniProt Q03173-3), the binding entry was “binds”.
